Results as given in US10583387B2, “Guanidine compounds for carbon dioxide capture” (UT-Battelle, LLC, priority 2017, dated 2020).
Several values for one entry are separate records, joined by “and”; a condition that tells them apart may be missing. Identical values can stand only once.

Experiments:
[1] = CO2 release and PyBIG regeneration by solar oven heating; format: physicochemical
Procedure: The CO2 release from the PyBIGH2(CO3)(H2O)4 crystals was conducted by solar heating with a solar oven. The oven consists of a vacuum-insulated borosilicate tube placed in the focal point of two adjustable parabolic reflectors. The temperature inside the tube was monitored with a thermocouple. The PyBIGH2(CO3)(H2O)4 samples 36.4-45.0 mg, 0.095-0.118 mmol) were loaded in 1 mL glass vials, which were placed inside the oven tube. The solar oven was then placed in the full sun and oriented to capture the maximum amount of sunlight. The temperature was ramped to the targeted values of 120° C., 130° C., 140° C., 150° C., or 160° C. as fast as possible (typically within 3 to 10 minutes), then held within ±2° C. by intermittently moving the oven out of the sun, or/and closing the reflectors. The samples were subsequently removed from the tube, allowed to cool to room temperature, and weighed to determine their mass loss. The resulting yellow solids were analyzed by FTIR to confirm the disappearance of the carbonate and water peaks. The solar regeneration experiments were repeated three times at each temperature, and the average values and standard deviations calculated.
However, considering that this transformation is highly endothermic, the possibility of using concentrated solar power to render the process more energy sustainable was explored. For the initial small-scale proof of concept, a solar oven was used to heat solid PyBIGH2(CO3)(H2O)4 samples (˜38 mg, 0.1 mmol) at five different temperatures ranging between 120 and 160° C. FTIR analyses corroborated the release of CO2, most evidently noticeable by the disappearance of the strong peak at 1361 cm^−1 corresponding to the stretching mode of the carbonate anion.

[2] = Sorbent regeneration by boiling aqueous solutions under reflux; details: for total CO2 swing capacity: 4 hours of refluxing; for total CO2 removed: one hour of refluxing
[3] = Sorbent regeneration by carbonate crystallization with PyBIG; details: 24 hours absorption, 24 hours regeneration with PyBIG, three runs
[4] = Direct air capture of CO2 with aqueous amino acid sorbents in an air humidifier; details: for average CO2 loading: after 24 hours; for Carbamate / Total CO2: after 24 hours absorption, average of three runs

Row | SMILES | Regeneration yield ([1]; 120 ° C., 30 min) | Regeneration yield ([1]; 130 ° C., 15 min) [%] | Regeneration yield ([1]; 140 ° C., 10 min) [%] | Regeneration yield ([1]; 150 ° C., 5 min) [%] | Regeneration yield ([1]; 160 ° C., 2 min) [%] | Regeneration yield ([1]; concentrated solar power, 120-160° C.) | total CO2 swing capacity [2] [mol/mol] | total CO2 removed [2] [mol/mol] | average swing capacity [3] [mol/mol] | average CO2 loading [4] [mol/mol] | Carbamate [4] [M] | Total CO2 [4] [M] | Carbamate ([4]; listed as Glycine) [M] | Carbamate ([4]; listed as Sarcosine) [M]
1 | O=C([O-])[O-].[K+].[K+] [K2CO3, reference compound] | 15% |  |  |  |  |  |  |  |  |  |  |  |  | 
2 | N=C(N)N/N=C/c1cccc(/C=N/NC(=N)N)n1 [PyBIG] | 92% and 92 ± 2% | 92 ± 2 | 95 ± 2 | 93 ± 2 | 96 ± 1 | 92-96% |  |  |  |  |  |  |  | 
3 | NCC(=O)O [glycine] |  |  |  |  |  |  | 0.47 | 0.31 | 0.28±0.06 | 0.77±0.04 | 0.22 ± 0.06 | 0.77 ± 0.04 | 0.22 ± 0.06 | 
4 | CNCC(=O)O [sarcosine] |  |  |  |  |  |  | 0.45 | 0.30 | 0.31±0.05 | 0.69±0.05 | 0.15 ± 0.02 | 0.69 ± 0.05 |  | 0.15 ± 0.02
